Target: T1, Aβ1-42 aggregation (Homo sapiens, UniProt P05067)
T1 construct: pre-treated Aβ1–42 (GL Biochem Ltd); purchased GL Biochem Ltd, shanghai, China
Experiment: Inhibition of Aβ1-42 aggregation, thioflavin T (ThT) method
Assay type: biochemical

By UniProt entry, the sequences of proteins in these tests, tags left out. Residues count along the entry.
UniProt P05067, 672-713: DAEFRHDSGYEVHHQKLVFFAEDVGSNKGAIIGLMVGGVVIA

COc1cc2c(cc1OC)C(=O)C(CC1CCN(Cc3ccccc3)CC1)C2 (stereo not shown) [donepezil, reference compound]
inhibition ratio towards Aβ1-42 aggregation: 25.8 ± 6.2%
